Drawing on patent publication US12006368, this text covers binding for two molecules.

Chains of the proteins cited; added tags and fusions are not shown. Residues count along the entry.
UniProt Q13467, residues 27-152: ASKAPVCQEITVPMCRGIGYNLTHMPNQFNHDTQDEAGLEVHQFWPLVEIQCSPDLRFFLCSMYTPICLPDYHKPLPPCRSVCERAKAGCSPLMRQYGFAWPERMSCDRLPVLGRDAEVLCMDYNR

Results are given in words; binding and its absence hold for the method and conditions named. Some entries that bind do so weakly or less than the wild type.

The target in assay [1] is Fzd5 cysteine rich domain (CRD), C-terminally biotinylated (human) (UniProt Q13467). Put plainly: summary in Table 3; method not given there.
Assay [2] shares this target. Put plainly: phage ELISA on immobilised antigen (Initial Binding). In general terms: An ELISA detects its analyte on a solid surface through an enzyme-linked reagent.
Assay [3] has as its target Fzd8 cysteine rich domain (CRD), C-terminally biotinylated (human) (UniProt Q9H461). Put plainly: summary in Table 3; method not given there.
Assay [4] deals with T1, Frizzled 8 (human) (UniProt Q9H461).
T1 sequence (looked up): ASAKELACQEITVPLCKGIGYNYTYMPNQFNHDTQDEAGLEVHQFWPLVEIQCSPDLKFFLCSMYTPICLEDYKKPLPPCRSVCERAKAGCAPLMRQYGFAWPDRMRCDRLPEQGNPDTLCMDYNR
Put plainly: phage ELISA on immobilized antigen (initial binding).

B1: 4A12 Fab (Fab, V domains shown)
VH: QVQLQQSGPELVKPGASVKLSCKASGYTFTNYDINWVKQRPGQGLEWIGWIYPRDGSTKYNEKFKGKATLTVDTSSSTAYMELHSLTSEDSAVYFCVRSAWGFAYWGQGTLVTVSA
VL: DIVMTQSHKFMSTSVGDRVSITCKASQDVGTAVAWYQQKPGQSPKLLIYWASTRHTGVPDRFTGSGSGTDFTLTINNVQSEDLADYFCQQYSTYPLTFGAGTKLELKR
In the case of B1, the binding entry in assay [1] and in assay [2] was “binds” in each case.

B2: 005S-H05 (Fab, V domains shown)
VH: QVQLVQSGAEVKKPGASVKVSCKASGYTFTSYYMHWVRQAPGQGLEWMGRINPNSGGTNYAQKFQGRVTMTRDTSTSTVYMELSSLRSEDTAVYYCARVPDFWSGYLDYWGQGTLVTVSS
VL: DIQMTQSPSSLSASVGDRVTITCRASQGISSALAWYQQKPGKAPKLLIYAASSLQSGVPSRFSGSGSGTDFTLTISSLQPEDFATYYCQQTYSMPITFGQGTRLEIKR
As to B2, the binding result in assay [3], in assay [1] and in assay [4] was “binds” throughout.
